Results as given in patent US20220396600 (published 2022).
Where a sequence shows no end group, the ends are not given. Non-standard residues stand in square brackets, D forms with d. No end group written: not given here. Aib = CC(C)(N)C(=O)O

experiment: general procedure: Fmoc solid-phase peptide synthesis; Wang type resins or super acid labile resins of the CI-Trt or Sasrin type; details: whole synthesis, RP-HPLC and mass spectrometry (ESI-TOF), trifluoroacetate salt or chloride salt

Row | Substance | final HPLC purity
1 | WFKYYGKAIY | 99.9%
2 | Pal-WFKYYGK-Aib-IY | 99.9%
3 | Pal-WFKYYGKAIY | 95.0%
4 | CF-WFKYYGK-Aib-IY | 83.1%
5 | CF-WFKYYGKAIY | 97.7%
6 | WFKYYGK-Aib-IY | 97.8%
7 | [Aib]WFKYYGKAIY | 96.1%
